Test results from patent US20240293418A1, “COMBINATION THERAPY FOR TREATING CANCER” (Epizyme, Inc., priority 2016, published 2024).
Like-named read-outs stand apart in the source and are kept apart here.

How the values were obtained:
Granta-519 [1] = test: mantle cell lymphoma 7 day co-treatment model; type: cell-based; settings: Homo sapiens, Granta-519, 168 h, read-out: Tazemetostat 7 day IC50
Maver-1 [2] = test: mantle cell lymphoma 7 day co-treatment model; type: cell-based; settings: Homo sapiens, Maver1, 168 h, read-out: Tazemetostat 7 day IC50
Mino [3] = test: mantle cell lymphoma 7 day co-treatment model; type: cell-based; settings: Homo sapiens, read-out: Tazemetostat 7 day IC50, data derived from 7 and 9 day combination treatment
Rec-1 [4] = test: mantle cell lymphoma 7 day co-treatment model; type: cell-based; settings: Homo sapiens, Rec1, 168 h, read-out: Tazemetostat 7 day IC50
Jeko-1 = test: mantle cell lymphoma 7 day co-treatment model; type: cell-based; settings: Homo sapiens, JeKo-1, 168 h, read-out: Tazemetostat 7 day IC50
Z-138 [5] = test: mantle cell lymphoma 7 day co-treatment model; type: cell-based; settings: Homo sapiens, read-out: Tazemetostat 7 day IC50, data derived from 8 and 9 day combination treatment
JVM-2 [6] = test: mantle cell lymphoma 7 day co-treatment model; type: cell-based; settings: Homo sapiens, JVM-2, 168 h, read-out: Tazemetostat 7 day IC50
U266 [7] = test system: U266
L-363 [8] = test system: L-363
ARH77 = test: cells; settings: Homo sapiens, ARH-77, 360 h, read-out: Tazemetostat Day 15 IC50
JJN3 = test: cells; settings: Homo sapiens, JJN-3, 360 h, read-out: Tazemetostat Day 15 IC50
KMS12BM = test: cells; settings: Homo sapiens, KMS-12-BM, 360 h, read-out: Tazemetostat Day 15 IC50
L363 = test: cells; settings: Homo sapiens, L-363, 360 h, read-out: Tazemetostat Day 15 IC50
LP1 = test: cells; settings: Homo sapiens, LP-1, 360 h, read-out: Tazemetostat Day 15 IC50
MM1R = test: cells; settings: MM.1R, 360 h, read-out: Tazemetostat Day 15 IC50
MM1S = test: cells; settings: Homo sapiens, MM1.S, 360 h, read-out: Tazemetostat Day 15 IC50
MOLP2 = test: cells; settings: MOLP-2, 360 h, read-out: Tazemetostat Day 15 IC50
MOLP8 = test: cells; settings: Homo sapiens, MOLP-8, 360 h, read-out: Tazemetostat Day 15 IC50
NCIH929 = test: cells; settings: Homo sapiens, NCI-H929, 360 h, read-out: Tazemetostat Day 15 IC50
OPM2 = test: cells; settings: Homo sapiens, OPM-2, 360 h, read-out: Tazemetostat Day 15 IC50
RPM18226 = test: cells; settings: Multiple myeloma cell, 360 h, read-out: Tazemetostat Day 15 IC50
U266B1 = test: cells; settings: Multiple myeloma cell, 360 h, read-out: Tazemetostat Day 15 IC50
KMS28BM = test: cells; settings: KMS-28BM, 360 h, read-out: Tazemetostat Day 15 IC50
LP-1 [9] = test: 7-day co-treatment combination model (Cell Titer Glo); settings: Homo sapiens, LP-1, 168 h, read-out: 7-day IC50
KMS-28-BM = test: as above; settings: 168 h, read-out: 7-day IC50
MM1.S [10] = test: as above; settings: Homo sapiens, 168 h, read-out: 7-day IC50
U266 [11] = test: 7 day pretreatment + 4-day co-treatment combination model (Cell Titer Glo); settings: Homo sapiens, U-266, 264 h, read-out: 11-day IC50
LP-1 [12] = test: as above; settings: Homo sapiens, LP-1, 264 h, read-out: 11-day IC50
L-363 [13] = test: as above; settings: Homo sapiens, L-363, 264 h, read-out: 11-day IC50
MM1.S [14] = test: as above; settings: Homo sapiens, 264 h, read-out: 11-day IC50
Granta-519 [15] = test: mantle cell lymphoma 7 day pretreatment + 4-day co-treatment model (Cell Titer Glo); settings: Homo sapiens, Granta-519, 264 h, read-out: Tazemetostat 11-day IC50
Maver-1 [16] = test: as above; settings: Homo sapiens, Maver1, 264 h, read-out: Tazemetostat 11-day IC50
Mino [17] = test: as above; settings: Homo sapiens, 264 h, read-out: Tazemetostat 11-day IC50
Rec-1 [18] = test: as above; settings: Homo sapiens, Rec1, 264 h, read-out: Tazemetostat 11-day IC50
Z-138 [19] = test: as above; settings: Homo sapiens, Z-138, 264 h, read-out: Tazemetostat 11-day IC50
JVM-2 [20] = test: as above; settings: Homo sapiens, JVM-2, 264 h, read-out: Tazemetostat 11-day IC50

IC50 (Granta-519 [1]): > 10000 nM | IC50 (Maver-1 [2]): > 10000 nM | IC50 (Mino [3]): > 10000 nM | IC50 (Rec-1 [4]): > 3000 nM | IC50 (Jeko-1): > 10000 nM | IC50 (Z-138 [5]): > 10000 nM | IC50 (JVM-2 [6]): 1400 nM | IC50 (U266 [7]): > 10000 nM | IC50 (L-363 [8]): 728 nM | IC50 (ARH77): 2930 nM | IC50 (JJN3): 441 nM | IC50 (KMS12BM): 288 nM | IC50 (L363): 280 nM | IC50 (LP1): 2100 nM | IC50 (MM1R): 58 nM | IC50 (MM1S): 340 nM | IC50 (MOLP2): > 10000 nM | IC50 (MOLP8): 322 nM | IC50 (NCIH929): > 10000 nM | IC50 (OPM2): 303 nM | IC50 (RPM18226): 123 nM | IC50 (U266B1): 678 nM | IC50 (KMS28BM): 43 nM | IC50 (MM1.S [10]): 5400 nM | IC50 (U266 [11]): 1500 nM | IC50 (MM1.S [14]): 422 nM | IC50 (Granta-519 [15]): 4240 nM | IC50 (Maver-1 [16]): 5610 nM | IC50 (Mino [17]): 1970 nM | IC50 (Rec-1 [18]): 870 nM | IC50 (Z-138 [19]): > 10000 nM | IC50 (JVM-2 [20]): 120 nM
Compound: CCN(c1cc(-c2ccc(CN3CCOCC3)cc2)cc(C(=O)NCc2c(C)cc(C)[nH]c2=O)c1C)C1CCOCC1 [Tazemetostat, tazemetostat]
IC50 (LP-1 [9]): > 10000 nM | IC50 (KMS-28-BM): 365 nM | IC50 (LP-1 [12]): 8410 nM | IC50 (L-363 [13]): 474 nM
